{"source": "patent US8026262B2", "about": "“Chemical compounds” (GlaxoSmithKline LLC, priority 2006, dated 2011)", "note": "Some entries share one result that the patent states for a list of compounds."}
{"target": "T1, human AR (Homo sapiens, UniProt P10275)", "T1 sequence (P10275 560-920 limits assumed)": "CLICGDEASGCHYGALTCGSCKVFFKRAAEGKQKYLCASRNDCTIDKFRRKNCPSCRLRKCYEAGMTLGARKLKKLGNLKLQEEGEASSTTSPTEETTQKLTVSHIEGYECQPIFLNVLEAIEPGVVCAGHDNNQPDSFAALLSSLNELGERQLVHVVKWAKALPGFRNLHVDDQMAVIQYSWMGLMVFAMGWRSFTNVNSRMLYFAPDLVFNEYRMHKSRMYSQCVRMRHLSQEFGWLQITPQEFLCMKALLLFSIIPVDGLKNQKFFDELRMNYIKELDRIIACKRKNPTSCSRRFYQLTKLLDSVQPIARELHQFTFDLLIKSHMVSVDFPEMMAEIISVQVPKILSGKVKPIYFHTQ", "assay": "AR functional assay (agonist mode), MMTV luciferase reporter in transfected CV-1 cells", "format": "cell-based", "details": "CV-1 cells transfected with human AR and MMTV luciferase, values said to be exemplary only"}
{"compound": "N#Cc1ccc(OCCn2c(C(F)F)cc3c(Cl)c(C#N)ccc32)cc1F", "note": "[Example 48, 4-Chloro-1-{2-[(4-cyano-3-fluorophenyl)oxy]ethyl}-2-(difluoromethyl)-1H-indole-5-carbonitrile]", "pIC50 in the agonist mode of the AR functional assay": "≥ 5.01"}
{"compound": "N#Cc1ccc2c(cc(C(F)F)n2CCOc2cncc(Cl)c2)c1Cl", "note": "[Example 49, 4-Chloro-1-{2-[(5-chloro-3-pyridinyl)oxy]ethyl}-2-(difluoromethyl)-1H-indole-5-carbonitrile]", "pIC50 in the agonist mode of the AR functional assay": "≥ 5.01"}
{"compound": "N#Cc1ccc2c(cc(C(F)F)n2CCOc2ccc(Cl)nc2)c1Cl", "note": "[Example 50, 4-Chloro-1-{2-[(6-chloro-3-pyridinyl)oxy]ethyl}-2-(difluoromethyl)-1H-indole-5-carbonitrile]", "pIC50 in the agonist mode of the AR functional assay": "≥ 5.01"}
{"compound": "N#Cc1ccc2c(cc(C(F)F)n2CCOc2ccc(F)cc2)c1Cl", "note": "[Example 51, 4-Chloro-2-(difluoromethyl)-1-{2-[(4-fluorophenyl)oxy]ethyl}-1H-indole-5-carbonitrile]", "pIC50 in the agonist mode of the AR functional assay": "≥ 5.01"}
{"compound": "CC(=O)Nc1ccc(OCCn2c(C(F)F)cc3c(Cl)c(C#N)ccc32)cc1", "note": "[Example 52, N-[4-({2-[4-Chloro-5-cyano-2-(difluoromethyl)-1H-indol-1-yl]ethyl}oxy)phenyl]acetamide]", "pIC50 in the agonist mode of the AR functional assay": "≥ 5.01"}
{"compound": "N#Cc1ccc2c(cc(C(F)F)n2CC(F)(F)F)c1C#N", "note": "[Example 53, 2-(Difluoromethyl)-1-(2,2,2-trifluoroethyl)-1H-indole-4,5-dicarbonitrile]", "pIC50 in the agonist mode of the AR functional assay": "≥ 5.01"}
{"compound": "N#Cc1ccc2c(cc(C(F)F)n2Cc2noc(-c3cccc(C(F)(F)F)c3)n2)c1C#N", "note": "[Example 54, 2-(Difluoromethyl)-1-({5-[3-(trifluoromethyl)phenyl]-1,2,4-oxadiazol-3-yl}methyl)-1H-indole-4,5-dicarbonitrile]", "pIC50 in the agonist mode of the AR functional assay": "≥ 5.01"}
{"compound": "N#Cc1ccc2c(cc(C(F)F)n2Cc2nnc(-c3cncc(Br)c3)o2)c1C#N", "note": "[Example 55, 1-{[5-(5-Bromo-3-pyridinyl)-1,3,4-oxadiazol-2-yl]methyl}-2-(difluoromethyl)-1H-indole-4,5-dicarbonitrile]", "pIC50 in the agonist mode of the AR functional assay": "≥ 5.01"}
{"compound": "N#Cc1ccc2c(cc(C(F)F)n2Cc2noc(-c3cc(C(F)(F)F)cc(C(F)(F)F)c3)n2)c1C#N", "note": "[Example 56, 1-({5-[3,5-bis(Trifluoromethyl)phenyl]-1,2,4-oxadiazol-3-yl}methyl)-2-(difluoromethyl)-1H-indole-4,5-dicarbonitrile]", "pIC50 in the agonist mode of the AR functional assay": "≥ 5.01"}
{"compound": "N#Cc1ccc2c(cc(C(F)F)n2Cc2noc(-c3cc(F)cc(F)c3)n2)c1C#N", "note": "[Example 57, 2-(Difluoromethyl)-1-{[5-(3,5-difluorophenyl)-1,2,4-oxadiazol-3-yl]methyl}-1H-indole-4,5-dicarbonitrile]", "pIC50 in the agonist mode of the AR functional assay": "≥ 5.01"}
{"compound": "N#Cc1ccc2c(c1Cl)CC(C(F)F)N2CC(F)(F)F", "note": "(stereo not drawn) [Example 58, 4-Chloro-2-(difluoromethyl)-1-(2,2,2-trifluoroethyl)-2,3-dihydro-1H-indole-5-carbonitrile]", "pIC50 in the agonist mode of the AR functional assay": "≥ 5.01"}
{"compound": "N#Cc1ccc2c(c1Cl)CC(C(F)F)N2Cc1noc(-c2cccc(C(F)(F)F)c2)n1", "note": "(stereo not drawn) [Example 59, 4-Chloro-2-(difluoromethyl)-1-({5-[3-(trifluoromethyl)phenyl]-1,2,4-oxadiazol-3-yl}methyl)-2,3-dihydro-1H-indole-5-carbonitrile]", "pIC50 in the agonist mode of the AR functional assay": "≥ 5.01"}
{"compound": "FC(F)(F)c1cccc(-c2nc(Cn3ccc4c(C(F)(F)F)c(Cl)ccc43)no2)c1", "note": "[Example 61, 5-Chloro-4-(trifluoromethyl)-1-({5-[3-(trifluoromethyl)phenyl]-1,2,4-oxadiazol-3-yl}methyl)-1H-indole]", "pIC50 in the agonist mode of the AR functional assay": "≥ 5.01"}
{"compound": "N#CCn1ccc2c(C(F)(F)F)c(C#N)ccc21", "note": "[Example 62, 1-(Cyanomethyl)-4-(trifluoromethyl)-1H-indole-5-carbonitrile]", "pIC50 in the agonist mode of the AR functional assay": "≥ 5.01"}
{"compound": "N#Cc1ccc2c(ccn2Cc2noc(-c3cc(C(F)(F)F)cc(C(F)(F)F)c3)n2)c1C(F)(F)F", "note": "[Example 63, 1-({5-[3,5-Bis(trifluoromethyl)phenyl]-1,2,4-oxadiazol-3-yl}methyl)-4-(trifluoromethyl)-1H-indole-5-carbonitrile]", "pIC50 in the agonist mode of the AR functional assay": "≥ 5.01"}
{"compound": "N#Cc1ccc2c(ccn2CC(N)=NO)c1C(F)(F)F", "note": "[Example 64, 2-[5-Cyano-4-(trifluoromethyl)-1H-indol-1-yl]-N-hydroxyethanimidamide]", "pIC50 in the agonist mode of the AR functional assay": "≥ 5.01"}
{"compound": "N#Cc1ccc2c(ccn2Cc2noc(-c3cc(C(F)(F)F)ccc3F)n2)c1C(F)(F)F", "note": "[Example 65, 1-({5-[2-Fluoro-5-(trifluoromethyl)phenyl]-1,2,4-oxadiazol-3-yl}methyl)-4-(trifluoromethyl)-1H-indole-5-carbonitrile]", "pIC50 in the agonist mode of the AR functional assay": "≥ 5.01"}
{"compound": "N#Cc1ccc2c(ccn2Cc2noc(-c3cc([N+](=O)[O-])cc(C(F)(F)F)c3)n2)c1C(F)(F)F", "note": "[Example 66, 1-({5-[3-Nitro-5-(trifluoromethyl)phenyl]-1,2,4-oxadiazol-3-yl}methyl)-4-(trifluoromethyl)-1H-indole-5-carbonitrile]", "pIC50 in the agonist mode of the AR functional assay": "≥ 5.01"}
{"compound": "N#Cc1ccc2c(ccn2Cc2noc(-c3ccc(F)c(C(F)(F)F)c3)n2)c1C(F)(F)F", "note": "[Example 67, 1-({5-[4-Fluoro-3-(trifluoromethyl)phenyl]-1,2,4-oxadiazol-3-yl}methyl)-4-(trifluoromethyl)-1H-indole-5-carbonitrile]", "pIC50 in the agonist mode of the AR functional assay": "≥ 5.01"}
{"compound": "N#Cc1ccc2c(ccn2Cc2noc(-c3cc(F)cc(C(F)(F)F)c3)n2)c1C(F)(F)F", "note": "[Example 68, 1-({5-[3-Fluoro-5-(trifluoromethyl)phenyl]-1,2,4-oxadiazol-3-yl}methyl)-4-(trifluoromethyl)-1H-indole-5-carbonitrile]", "pIC50 in the agonist mode of the AR functional assay": "≥ 5.01"}
{"compound": "N#Cc1ccc2c(ccn2Cc2noc(-c3cc(C(F)(F)F)cc(Cl)c3F)n2)c1C(F)(F)F", "note": "[Example 69, 1-({5-[3-Chloro-2-fluoro-5-(trifluoromethyl)phenyl]-1,2,4-oxadiazol-3-yl}methyl)-4-(trifluoromethyl)-1H-indole-5-carbonitrile]", "pIC50 in the agonist mode of the AR functional assay": "≥ 5.01"}
{"compound": "N#Cc1ccc2c(ccn2Cc2noc(-c3cc(C(F)(F)F)ccc3Cl)n2)c1C(F)(F)F", "note": "[Example 70, 1-({5-[2-Chloro-5-(trifluoromethyl)phenyl]-1,2,4-oxadiazol-3-yl}methyl)-4-(trifluoromethyl)-1H-indole-5-carbonitrile]", "pIC50 in the agonist mode of the AR functional assay": "≥ 5.01"}
{"compound": "COc1ccc(-c2nc(Cn3ccc4c(C(F)(F)F)c(C#N)ccc43)no2)cc1C(F)(F)F", "note": "[Example 71, 1-({5-[4-(Methyloxy)-3-(trifluoromethyl)phenyl]-1,2,4-oxadiazol-3-yl}methyl)-4-(trifluoromethyl)-1H-indole-5-carbonitrile]", "pIC50 in the agonist mode of the AR functional assay": "≥ 5.01"}
{"compound": "N#Cc1ccc2c(ccn2Cc2noc(-c3ccc(Cl)c(C(F)(F)F)c3)n2)c1C(F)(F)F", "note": "[Example 72, 1-({5-[4-Chloro-3-(trifluoromethyl)phenyl]-1,2,4-oxadiazol-3-yl}methyl)-4-(trifluoromethyl)-1H-indole-5-carbonitrile]", "pIC50 in the agonist mode of the AR functional assay": "≥ 5.01"}
